The values below come from patent US20170087188A1, “WNT INDUCED MOTILITY AND ENHANCED ENGRAFTMENT OF CELLS” (OTTAWA HOSPITAL RESEARCH INSTITUTE, priority 2014, published 2017).

Bounds are passed on as bounds.

The data set relates to primary myoblasts. Kind of data set: Endocytosis and intracellular persistence of Wnt7a in myoblasts. In kind it is cell-based. The note with it: after 3 h incubation and washing; primary myoblasts and C2C12 cells.

B1: Wnt7a-HA: HA epitope tagged Wnt7a in conditioned medium produced in COS-1 cells (protein, UniProt O00755 32-349, looked up)
Protein Wnt-7a: LGASIICNKIPGLAPRQRAICQSRPDAIIVIGEGSQMGLDECQFQFRNGRWNCSALGERTVFGKELKVGSREAAFTYAIIAAGVAHAITAACTQGNLSDCGCDKEKQGQYHRDEGWKWGGCSADIRYGIGFAKVFVDAREIKQNARTLMNLHNNEAGRKILEENMKLECKCHGVSGSCTTKTCWTTLPQFRELGYVLKDKYNEAVHVEPVRASRNKRPTFLKIKKPLSYRKPMDTDLVYIEKSPNYCEEDPVTGSVGTQGRACNKTAPQASGCDLMCCGRGYNTHQYARVWQCNCKFHWCCYVKCNTCSERTEMYTCK
modifications: HA tag
Consider B1, for which the “time endocytosed Wnt7a is detectable in intracellular structures” value was at least 72 h.

B2: Wnt7a: non-canonical Wnt polypeptide (R&D Systems) used to treat or load myogenic cells (protein, UniProt O00755 32-349, looked up)
Protein Wnt-7a: LGASIICNKIPGLAPRQRAICQSRPDAIIVIGEGSQMGLDECQFQFRNGRWNCSALGERTVFGKELKVGSREAAFTYAIIAAGVAHAITAACTQGNLSDCGCDKEKQGQYHRDEGWKWGGCSADIRYGIGFAKVFVDAREIKQNARTLMNLHNNEAGRKILEENMKLECKCHGVSGSCTTKTCWTTLPQFRELGYVLKDKYNEAVHVEPVRASRNKRPTFLKIKKPLSYRKPMDTDLVYIEKSPNYCEEDPVTGSVGTQGRACNKTAPQASGCDLMCCGRGYNTHQYARVWQCNCKFHWCCYVKCNTCSERTEMYTCK
In the case of B2, the “time endocytosed Wnt7a is detectable in intracellular structures” value is listed as over 72 h.
